Primary screen of a compound library

Results are given as percent effect.
The record does not define 0% and 100%; most values in the screen are far below 50% and negative numbers occur (in some assays of this library far below -100).
This is an unselected part of the compounds tested.
A dash means the value is not listed here; it may have been measured.

Mtb growth Cornell: 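Whole-cell assay for inhibitors of Mycobacterium tuberculosis growth, labelled Cornell in the record; the read-out is not stated. The concentration is filed as 10 mM, unlikely as a test dose, so the dose is not known. Higher means stronger inhibition (inferred from two other growth screens of the library). Size under these conditions: about 53,000 compounds, about 900 of them at 50% or above in at least one test.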
Mtb heat-shock: 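Assay on Mycobacterium tuberculosis, filed only as a heat shock assay from Cornell; the read-out is not stated. The concentration is filed as 10 mM, unlikely as a test dose, so the dose is not known. Higher reads as stronger inhibition (inferred: compounds with an IC50 in retests scored well above the rest). About 69,000 compounds were tested under these conditions; 1.4% (about 930) showed 50% or more at least once.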

compound	Mtb growth Cornell	Mtb heat-shock
CC1CCN(C(=O)CN2CCC(c3n[nH]c(C4CC4)n3)CC2)CC1	20.52%	6.28%
O=C(O)C(F)(F)F.O=C(O)C(F)(F)F.[H][C@@]12CN(Cc3cccs3)CCC[C@]1(C(=O)OCC)CN(CCOC)C2	11.02%	-2.037%
CCc1ccc(-c2c(C)c(-c3cnn(C)c3)nc(N)c2C#N)o1	33.54%	-6.417%
Cc1cc(NCCSc2nccn2C)n2ncnc2n1	-28%	-35.12%
COc1cc(C)c(C)cc1S(=O)(=O)N(C)CC(=O)Nc1ccon1	-4.541%	15.15%
CN(C)C(=O)c1ccc(OC2CCCC2)cc1	30.46%	10.82%
COc1ccc(OCCCNCCn2cccn2)cc1	-19.2%	-2.347%
CN(Cc1c[nH]nc1-c1ccc(F)cc1F)Cc1nccn1C	-24.43%	-4.85%
CCSc1ccccc1C(=O)NCCN1CCC(c2cccs2)CC1	32.68%	-4.824%
CCC1=NC2(CCC(C(=O)Nc3ccc(F)cc3)CC2)C(=O)N1C (centres unmarked)	9.927%	3.617%
[H][C@@]12CCN(C[C@@H]1CN1CCCCC1)[C@@H](CNC(=O)c1ccco1)C2	-0.03951%	-3.617%
Cc1cncc(C2CCN(Cc3cccn3C)CC2)n1	-	-31.44%
Cc1ccc(C)c(OCc2cc(C(=O)N(C)Cc3nonc3C)no2)c1	-15.21%	-47.64%
Cn1cc(CN2CCC3(CC2)CN(c2cccnc2)C(=O)CO3)cn1	-19.05%	15.22%
CN1CCC(N[C@@H]2CO[C@H](CNC(=O)C3CCCC3)[C@H]2O)CC1	-17.41%	-43.29%
CN(Cc1ccoc1)C(=O)C1(Oc2ccc(Cl)cc2)CCNCC1	23.84%	6.044%
Cc1ccc(C(=O)N2CCn3cc(CN(C)Cc4ccco4)nc3C2)o1.O=C(O)C(F)(F)F	2.664%	-11.91%
CCCC(=O)N1Cc2ccccc2CC2(CCN(C)C2)C1 (centres unmarked)	-	-19.18%
NC(=O)C1CCN(C(=O)CCCc2nnc(-c3ccccc3)o2)CC1	-	-12.34%
O=C(O)C(F)(F)F.O=C(O)C(F)(F)F.[H][C@@]12CC(=O)N(c3cccnc3)[C@@]1([H])CCN2c1ncc(CC)cn1	16.86%	-15.97%
O=C(CSC1CCc2ccccc2NC1=O)NCCc1ccco1 (centres unmarked)	2.024%	-2.418%
O=C(CC1CC1)NCc1cn2c(n1)CN(Cc1nccs1)CC2.O=C(O)C(F)(F)F	4.106%	-15.19%
CC(C)[C@H]1CN(C2Cc3ccccc3C2)C[C@@H]1NS(=O)(=O)N(C)C	-0.3432%	-31.5%
COc1ccc2c(c1)CN(c1nc(C)cc(C)n1)CC2	63.12%	13.37%
c1ccc(-c2nnc(C3CCCN(CC4CCCCC4)C3)o2)nc1 (centres unmarked)	-13.34%	9.318%
CCOC(=O)N1CCN(C(=O)c2snnc2-c2ccc(OC)cc2)CC1	-4.242%	2.04%
Cc1nn(C)c(Cl)c1C(=O)NCC(c1ccsc1)N(C)C (centres unmarked)	8.025%	13.06%
CN(C)C(=O)c1ccc2c(c1)nc(N1CC[C@H](O)C1)n2C	-	-6.608%
[H][C@@]12CN(C(=O)C3CC=CC3)C[C@]1([H])C(=O)N(CC)C2	-41.39%	-6.377%
O=C(O)C(F)(F)F.[H][C@@]12OCCN(S(=O)(=O)C3CC3)[C@@]1([H])CC[C@H]2OCCN1CCCC1	-17.29%	-9.716%
O=C(NC[C@H]1CC[C@H](c2ccnc3ncnn32)CC1)C1CC1	-18.66%	14.38%
CC(C)N(C)CC(=O)N(C)Cc1nc(C(F)(F)F)cs1	-	-24.38%
COCC(c1cccc(C(F)(F)F)c1)N(C)C(=O)c1ccoc1 (centres unmarked)	-	-10.01%
NC1(c2nc(-c3ccccc3)cc(=O)[nH]2)CCCC1	17.2%	-2.897%
CN(Cc1cccc(F)c1)S(=O)(=O)N1CCOCC1	-23.07%	-17.86%
CCN(CC)c1ccc(C(=O)N(C)Cc2c(C)noc2C)cn1	23.76%	-4.421%
Cc1ccc(C(=O)NS(=O)(=O)c2cc(Cl)ccc2Cl)c(=O)[nH]1	14.21%	6.897%
COc1ccc(C2(NCc3c(C)nc4c(C)cccn34)CCCC2)cc1.O=C(O)CC(O)(CC(=O)O)C(=O)O	60.04%	-4.522%
O=C(c1ccc2ccccc2c1)C1CCCN(C(=O)Cn2cnnn2)C1 (centres unmarked)	-	-23.68%
O=C(O)C(F)(F)F.[H][C@@]12CCCO[C@]1([H])[C@@H](OCC1CC1)CN2S(=O)(=O)c1cn(C)cn1	-1.956%	-0.884%
Cc1nccc(C2CCCCN2Cc2cccc(F)c2)n1 (centres unmarked)	-6.702%	-2.627%
Cc1nnc(CN(C)S(=O)(=O)c2ccc(Br)cc2Cl)n1C	16.43%	9.084%
O=C(c1ccc(Br)o1)N1CCCC(n2cncn2)C1 (centres unmarked)	-1.105%	17.79%
O=C(O)C(F)(F)F.O=C(O)C(F)(F)F.O=C(O)C(F)(F)F.[H][C@@]12C[C@@H](Oc3cccnc3)CN1CCN(c1ncc(F)cn1)C2	20.32%	-3.473%
CCN1CC(C(=O)NCc2ccnc(-n3cccn3)c2)CC1=O (centres unmarked)	-	-6.854%
N#Cc1ccc(F)c(CN2CCc3sccc3C2)c1	-	-18.99%
COc1ccc(C(C)N2CCN(Cc3nccn3C)CC2)cc1Cl (centres unmarked)	-6.177%	-4.913%
CCn1cc(NC(=O)NC2CCCc3c2cnn3CCO)cn1 (centres unmarked)	-3.849%	1.684%
CCN1C(=O)C2(CCOCC2)c2cc(NC(=O)c3ccco3)ccc21	-12.33%	-1.823%
Cc1cc(C(=O)N(C)C2CCN(C)C2)c2ccc(F)cc2n1 (centres unmarked)	-43.4%	-30.72%
CCC1c2ccccc2CCN1C(=O)c1ccnc(C(=O)OC)c1 (centres unmarked)	-18.9%	3.409%
CCc1nccn1C1CCCN(C(=O)c2ccc3c(c2)OCCO3)C1 (centres unmarked)	-68.05%	-13.25%
Cc1nn(CC(C)C)c(N(C)C)c1CNCc1ccc(CO)c(F)c1	16.97%	4.462%
CC(C)Cc1noc(CN2CCN(C(=O)c3cccs3)CC2)n1	13.19%	7.145%
O=C(NCCNc1cc(N2CCCC2)cnn1)Nc1ccccc1F	7.177%	2.167%
CCOc1cc2c(cc1CNC(Cc1cccs1)c1nccs1)OCO2.Cl (centres unmarked)	29.3%	22.73%
Cc1cccc(-c2nc(CN3CCCC3Cn3cc(C)cn3)no2)c1 (centres unmarked)	1.056%	20.68%
COCCCNC(=O)CN(C)C(=O)c1cc(C)ccc1O	15.23%	5.458%
Cc1nc(C)n(CCCn2ccnc2-c2cc3n(n2)CCCNC3)n1	2.091%	-23.56%
COCC1CN(C(=O)COc2ccc(C)cc2)Cc2cn(C)nc21.O=C(O)C(F)(F)F (centres unmarked)	-33.78%	15.16%
CC(C)(C)C(=O)N1CCCC(c2ncncc2-c2ccncc2)C1 (centres unmarked)	5.382%	-17.6%
Cc1nc(C)c(C(=O)N2CCCC(n3ccnc3C)C2)s1 (centres unmarked)	-	11.54%
[H][C@@]12CS(=O)(=O)C[C@]1([H])N(Cc1cccc(OC)c1)CCN2CCC	4.413%	-37.63%
CCc1cc(NCCC(F)(F)F)nc(N2CCOCC2)n1	7.919%	-4.068%
OCCOc1cc(F)ccc1NCc1nc(-c2ccoc2)no1	25.81%	-20.95%
O=C(CCSc1ccc(F)cc1)N1CCN(c2cnccn2)CC1	25.36%	-18.99%
COCCN1C2(CCN(Cc3nccs3)C2)c2ccccc2S1(=O)=O.O=C(O)C(F)(F)F (centres unmarked)	15.04%	-4.762%
CN1CCN(c2ccccc2NC(=O)c2ccco2)CC1	33.44%	-4.155%
[H][C@]12CCN(S(=O)(=O)C3CC3)C[C@@]1([H])OCCN(C(C)=O)C2	-6.512%	34.15%
O=C(O)C(F)(F)F.O=C1CC2(CCCCN2CC2CC2)CN1c1ccccc1 (centres unmarked)	29%	-8.004%
Cc1cccc(OCCNC(=O)CN2CCCC2Cn2cncn2)c1 (centres unmarked)	6.791%	-9.013%
Cc1nc(C2(NC(=O)NCc3cc(C#N)ccc3F)CCCC2)no1	13.8%	5.932%
Cc1ccc(CNCC2CCN(CC(O)c3ccccc3)CC2)o1 (centres unmarked)	21.1%	-11.02%

The first 5 entries again:

{"compound": "CC1CCN(C(=O)CN2CCC(c3n[nH]c(C4CC4)n3)CC2)CC1", "Mtb growth Cornell": 20.52, "Mtb heat-shock": 6.28}
{"compound": "O=C(O)C(F)(F)F.O=C(O)C(F)(F)F.[H][C@@]12CN(Cc3cccs3)CCC[C@]1(C(=O)OCC)CN(CCOC)C2", "Mtb growth Cornell": 11.02, "Mtb heat-shock": -2.037}
{"compound": "CCc1ccc(-c2c(C)c(-c3cnn(C)c3)nc(N)c2C#N)o1", "Mtb growth Cornell": 33.54, "Mtb heat-shock": -6.417}
{"compound": "Cc1cc(NCCSc2nccn2C)n2ncnc2n1", "Mtb growth Cornell": -28, "Mtb heat-shock": -35.12}
{"compound": "COc1cc(C)c(C)cc1S(=O)(=O)N(C)CC(=O)Nc1ccon1", "Mtb growth Cornell": -4.541, "Mtb heat-shock": 15.15}

Measurements from “University of Dundee, Small-Polar-MMV Screening Library” (2021), ChEMBL document CHEMBL3988442.